Like-named read-outs stand apart in the source and are kept apart here. No constants are given. Whether binding was seen depends on the method and setting. For some of these results: In cells and extracts the contact can be indirect. Some results given as binding are weak or reduced against the parent protein; the word gives no strength. For some of these results: Sequences can lack the tags named with a protein.
T1: UBP12-GFP (A. thaliana) (UniProt Q9FPT1)
T1 sequence: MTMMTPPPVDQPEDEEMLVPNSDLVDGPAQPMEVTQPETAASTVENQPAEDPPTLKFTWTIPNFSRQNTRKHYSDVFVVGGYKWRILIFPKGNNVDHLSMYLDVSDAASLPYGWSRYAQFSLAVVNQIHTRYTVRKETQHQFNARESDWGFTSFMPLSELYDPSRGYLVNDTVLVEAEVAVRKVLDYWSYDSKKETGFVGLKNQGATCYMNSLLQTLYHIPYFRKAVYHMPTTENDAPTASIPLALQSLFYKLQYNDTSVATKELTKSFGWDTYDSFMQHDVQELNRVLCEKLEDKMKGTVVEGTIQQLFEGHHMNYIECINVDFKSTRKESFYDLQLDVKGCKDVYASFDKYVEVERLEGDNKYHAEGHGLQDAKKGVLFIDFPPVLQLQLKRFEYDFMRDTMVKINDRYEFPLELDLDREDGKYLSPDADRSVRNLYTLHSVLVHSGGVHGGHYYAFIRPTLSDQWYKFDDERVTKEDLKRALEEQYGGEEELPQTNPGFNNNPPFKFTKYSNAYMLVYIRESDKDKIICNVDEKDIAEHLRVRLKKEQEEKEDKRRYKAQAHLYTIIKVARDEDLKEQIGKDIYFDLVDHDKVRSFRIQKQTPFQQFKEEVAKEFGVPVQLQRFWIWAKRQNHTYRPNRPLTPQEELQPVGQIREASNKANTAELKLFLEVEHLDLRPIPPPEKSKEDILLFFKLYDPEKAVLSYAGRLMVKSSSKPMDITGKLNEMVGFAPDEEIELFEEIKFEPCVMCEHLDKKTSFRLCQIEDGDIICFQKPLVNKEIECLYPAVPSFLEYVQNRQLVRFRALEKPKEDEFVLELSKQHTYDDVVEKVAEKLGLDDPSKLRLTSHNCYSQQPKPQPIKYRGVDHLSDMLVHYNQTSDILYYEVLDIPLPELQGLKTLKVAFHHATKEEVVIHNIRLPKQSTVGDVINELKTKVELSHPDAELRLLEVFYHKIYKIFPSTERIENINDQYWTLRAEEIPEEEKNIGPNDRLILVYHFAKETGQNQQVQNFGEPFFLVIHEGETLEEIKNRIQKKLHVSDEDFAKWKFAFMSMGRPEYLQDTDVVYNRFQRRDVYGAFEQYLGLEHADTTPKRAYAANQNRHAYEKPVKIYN

Chains of the proteins cited; added tags and fusions are not shown.
UniProt Q6WWW4: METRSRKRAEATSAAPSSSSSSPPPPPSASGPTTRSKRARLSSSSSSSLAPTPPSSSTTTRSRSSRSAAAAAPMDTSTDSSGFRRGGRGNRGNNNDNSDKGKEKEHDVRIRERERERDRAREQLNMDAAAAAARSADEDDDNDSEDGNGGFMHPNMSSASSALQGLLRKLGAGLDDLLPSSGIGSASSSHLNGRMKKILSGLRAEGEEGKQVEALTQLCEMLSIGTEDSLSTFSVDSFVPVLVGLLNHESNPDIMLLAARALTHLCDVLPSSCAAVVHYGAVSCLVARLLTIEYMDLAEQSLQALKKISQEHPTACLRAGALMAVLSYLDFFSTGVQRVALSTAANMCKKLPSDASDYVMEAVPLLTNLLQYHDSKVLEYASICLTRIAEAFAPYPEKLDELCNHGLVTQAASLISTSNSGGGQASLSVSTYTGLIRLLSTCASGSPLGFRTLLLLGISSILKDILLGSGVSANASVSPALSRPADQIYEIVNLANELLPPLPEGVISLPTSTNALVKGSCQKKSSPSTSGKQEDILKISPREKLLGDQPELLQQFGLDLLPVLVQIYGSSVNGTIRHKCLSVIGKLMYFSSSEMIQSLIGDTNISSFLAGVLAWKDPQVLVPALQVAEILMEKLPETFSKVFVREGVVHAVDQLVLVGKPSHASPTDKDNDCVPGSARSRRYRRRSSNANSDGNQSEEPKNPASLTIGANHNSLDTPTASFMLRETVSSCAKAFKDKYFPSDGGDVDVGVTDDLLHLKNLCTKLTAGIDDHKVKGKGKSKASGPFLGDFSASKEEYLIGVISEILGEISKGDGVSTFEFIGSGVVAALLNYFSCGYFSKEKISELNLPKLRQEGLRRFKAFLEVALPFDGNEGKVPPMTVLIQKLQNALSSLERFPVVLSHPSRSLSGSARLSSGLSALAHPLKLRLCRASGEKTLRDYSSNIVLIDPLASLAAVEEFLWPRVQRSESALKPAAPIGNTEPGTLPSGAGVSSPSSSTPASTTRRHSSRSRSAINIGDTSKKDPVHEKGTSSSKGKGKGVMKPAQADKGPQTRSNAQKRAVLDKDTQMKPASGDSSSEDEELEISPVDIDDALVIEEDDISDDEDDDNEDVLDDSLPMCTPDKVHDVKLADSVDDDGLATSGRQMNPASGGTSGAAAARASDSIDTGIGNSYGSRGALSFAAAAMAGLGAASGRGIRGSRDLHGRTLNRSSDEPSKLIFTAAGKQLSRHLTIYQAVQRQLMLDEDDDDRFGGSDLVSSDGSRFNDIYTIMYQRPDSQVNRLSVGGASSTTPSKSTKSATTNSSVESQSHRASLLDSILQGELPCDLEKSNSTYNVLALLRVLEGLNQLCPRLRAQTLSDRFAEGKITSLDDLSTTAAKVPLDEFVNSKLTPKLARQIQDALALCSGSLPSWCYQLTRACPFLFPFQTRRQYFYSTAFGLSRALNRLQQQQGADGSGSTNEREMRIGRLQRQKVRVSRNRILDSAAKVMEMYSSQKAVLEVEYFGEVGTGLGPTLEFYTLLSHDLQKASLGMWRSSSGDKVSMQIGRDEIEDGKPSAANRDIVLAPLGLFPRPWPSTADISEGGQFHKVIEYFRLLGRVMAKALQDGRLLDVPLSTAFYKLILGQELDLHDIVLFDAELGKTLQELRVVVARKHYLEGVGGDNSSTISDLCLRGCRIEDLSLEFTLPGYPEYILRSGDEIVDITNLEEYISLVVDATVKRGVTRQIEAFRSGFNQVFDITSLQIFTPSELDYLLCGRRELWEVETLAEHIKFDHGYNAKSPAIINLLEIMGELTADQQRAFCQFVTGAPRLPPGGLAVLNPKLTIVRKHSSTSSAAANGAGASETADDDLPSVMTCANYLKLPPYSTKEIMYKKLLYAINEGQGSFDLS
UniProt Q42525: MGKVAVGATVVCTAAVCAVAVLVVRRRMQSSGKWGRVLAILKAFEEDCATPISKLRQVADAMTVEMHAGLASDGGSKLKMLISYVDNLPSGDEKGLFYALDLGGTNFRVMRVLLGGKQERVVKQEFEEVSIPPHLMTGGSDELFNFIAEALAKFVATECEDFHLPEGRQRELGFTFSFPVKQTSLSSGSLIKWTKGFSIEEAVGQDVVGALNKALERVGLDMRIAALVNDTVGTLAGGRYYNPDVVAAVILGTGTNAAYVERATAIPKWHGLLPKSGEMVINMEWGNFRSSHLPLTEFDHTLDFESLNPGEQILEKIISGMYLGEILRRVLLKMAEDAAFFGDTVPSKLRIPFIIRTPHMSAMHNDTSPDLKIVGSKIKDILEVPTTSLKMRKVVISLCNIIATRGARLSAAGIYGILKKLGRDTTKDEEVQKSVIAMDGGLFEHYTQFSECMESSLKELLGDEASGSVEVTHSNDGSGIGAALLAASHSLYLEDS
UniProt Q6EVK6: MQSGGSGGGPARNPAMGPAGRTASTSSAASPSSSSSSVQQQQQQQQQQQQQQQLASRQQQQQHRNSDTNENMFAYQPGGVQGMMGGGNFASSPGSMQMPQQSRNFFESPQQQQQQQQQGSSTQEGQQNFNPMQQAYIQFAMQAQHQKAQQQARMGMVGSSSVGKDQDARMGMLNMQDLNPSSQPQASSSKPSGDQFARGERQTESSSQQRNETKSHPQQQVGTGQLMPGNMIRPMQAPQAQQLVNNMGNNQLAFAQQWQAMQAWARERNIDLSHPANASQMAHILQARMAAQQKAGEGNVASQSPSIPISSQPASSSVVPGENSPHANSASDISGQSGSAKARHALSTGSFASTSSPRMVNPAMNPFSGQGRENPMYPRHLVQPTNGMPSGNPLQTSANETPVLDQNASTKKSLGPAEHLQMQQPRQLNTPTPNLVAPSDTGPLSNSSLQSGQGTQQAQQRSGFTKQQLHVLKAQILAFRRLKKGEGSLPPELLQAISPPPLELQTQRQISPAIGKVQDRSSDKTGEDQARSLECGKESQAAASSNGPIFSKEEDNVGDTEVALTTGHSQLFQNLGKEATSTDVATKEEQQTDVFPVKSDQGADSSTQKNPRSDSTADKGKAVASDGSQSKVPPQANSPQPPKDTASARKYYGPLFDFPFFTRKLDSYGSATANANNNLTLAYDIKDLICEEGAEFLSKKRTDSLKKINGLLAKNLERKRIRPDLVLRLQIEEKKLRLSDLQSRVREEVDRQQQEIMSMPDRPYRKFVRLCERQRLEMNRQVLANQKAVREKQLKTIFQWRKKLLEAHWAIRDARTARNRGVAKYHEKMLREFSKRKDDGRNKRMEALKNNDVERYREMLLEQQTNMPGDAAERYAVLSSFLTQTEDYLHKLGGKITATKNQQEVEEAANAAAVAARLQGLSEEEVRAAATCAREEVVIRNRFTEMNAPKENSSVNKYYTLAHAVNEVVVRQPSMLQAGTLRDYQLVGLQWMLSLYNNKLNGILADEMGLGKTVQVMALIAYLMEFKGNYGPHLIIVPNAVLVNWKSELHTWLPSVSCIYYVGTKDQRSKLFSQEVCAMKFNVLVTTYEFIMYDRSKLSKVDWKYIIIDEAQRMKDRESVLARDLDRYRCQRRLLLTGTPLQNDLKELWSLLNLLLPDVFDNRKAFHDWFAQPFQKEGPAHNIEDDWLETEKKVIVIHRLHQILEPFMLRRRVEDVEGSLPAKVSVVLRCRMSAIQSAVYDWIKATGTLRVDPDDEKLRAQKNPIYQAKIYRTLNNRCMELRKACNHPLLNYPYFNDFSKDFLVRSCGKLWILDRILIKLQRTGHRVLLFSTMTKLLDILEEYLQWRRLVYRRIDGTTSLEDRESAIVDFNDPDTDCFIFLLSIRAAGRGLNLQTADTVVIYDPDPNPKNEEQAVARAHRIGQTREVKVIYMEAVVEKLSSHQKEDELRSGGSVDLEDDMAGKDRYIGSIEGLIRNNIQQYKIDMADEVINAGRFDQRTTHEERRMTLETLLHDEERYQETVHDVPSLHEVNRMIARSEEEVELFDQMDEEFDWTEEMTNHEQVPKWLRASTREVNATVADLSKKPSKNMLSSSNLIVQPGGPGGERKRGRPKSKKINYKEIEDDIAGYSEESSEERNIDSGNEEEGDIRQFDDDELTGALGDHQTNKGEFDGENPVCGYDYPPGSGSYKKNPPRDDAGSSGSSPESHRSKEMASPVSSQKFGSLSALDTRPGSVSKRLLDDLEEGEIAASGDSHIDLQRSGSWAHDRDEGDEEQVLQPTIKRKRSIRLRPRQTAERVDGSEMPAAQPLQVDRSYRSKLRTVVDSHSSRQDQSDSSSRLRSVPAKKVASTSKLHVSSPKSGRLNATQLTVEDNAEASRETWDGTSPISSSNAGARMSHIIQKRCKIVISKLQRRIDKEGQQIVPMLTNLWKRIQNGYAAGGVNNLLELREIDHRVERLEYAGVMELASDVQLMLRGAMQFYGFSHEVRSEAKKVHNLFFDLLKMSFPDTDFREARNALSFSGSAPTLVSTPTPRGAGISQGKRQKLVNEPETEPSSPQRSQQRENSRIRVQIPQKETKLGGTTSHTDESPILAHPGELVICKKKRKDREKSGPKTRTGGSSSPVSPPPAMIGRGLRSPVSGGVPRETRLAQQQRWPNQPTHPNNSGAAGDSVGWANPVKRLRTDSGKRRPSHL

T2: BD-UBP12 (A. thaliana) (UniProt Q9FPT1)
T2 sequence: T1 sequence

B1: PPC2 (two-hybrid prey) (enzyme, UniProt Q5GM68 1-963)
chain: MAARNLEKMASIDAQLRLLAPGKVSEDDKLIEYDALLLDRFLDILQDLHGEDVREFVQECYEVAADYDGNRNTEKLEELGNMLTSLDPGDSIVVTKSFSNMLSLANLAEEVQIAYRRRIKKLKKGDFADEASATTESDIEETLKRLLQLNKTPEEVFDALKNQTVDLVLTAHPTQSVRRSLLQKFGRIRDCLTQLYAKDITPDDKQELDEALQREIQAAFRTDEIRRTPPTPQDEMRAGMSYFHETIWKGVPKFLRRVDTALKNIGINERVPYNAPLIQFSSWMGGDRDGNPRVTPEVTRDVCLLARMMAANLYFSQIEDLMFEMSMWRCNEELRVRAERQRCAKRDAKHYIEFWKQIPANEPYRAILGDVRDKLYNTRERARQLLSSGVSDVPEDAVFTSVDQFLEPLELCYRSLCDCGDRPIADGSLLDFLRQVSTFGLALVKLDIRQESERHSDVLDAITTHLGIGSYKEWSEDKRQEWLLSELSGKRPLFGPDLPKTEEVADVLDTFKVISELPSDSFGAYIISMATAPSDVLAVELLQRECGITDPLRVVPLFEKLADLESAPAAVARLFSIEWYRNRINGKQEVMIGYSDSGKDAGRLSAAWQLYKTQEELVKVAKEYGVKLTMFHGRGGTVGRGGGPTHLAILSQPPDTIHGQLRVTVQGEVIEQSFGEEHLCFRTLQRFTAATLEHGMHPPVSPKPEWRVLMDEMAIIATEEYRSVVFKEPRFVEYFRLATPELEYGRMNIGSRPSKRKPSGGIESLRAIPWIFAWTQTRFHLPVWLGFGGAFKRVIQKDSKNLNMLKEMYNQWPFFRVTIDLVEMVFAKGDPGIAALYDRLLVSEELQPFGEQLRVNYQETRRLLLQVAGHKDILEGDPYLRQRLQLRDPYITTLNVCQAYTLKQIRDPSFHVKVRPHLSKDYMESSPAAELVKLNPKSEYAPGLEDTVILTMKGIAAGMQNTG
B2: phosphoenolpyruvate carboxylase 2 (PPC2) (enzyme, UniProt Q5GM68 1-963)
chain: B1 chain

How the values were obtained:
UBP12-GFP (A. thaliana) = target: T1, UBP12-GFP (A. thaliana); test: co-IP; anti-GFP immunoprecipitation from fifth to eighth rosette leaves of 6-wk-old oeUPL3-GFP or oeUBP12-GFP plants; blots with anti-HXK1, anti-BRM and anti-PPC2
UPL3-GFP (A. thaliana) = UPL3-GFP (A. thaliana) (UniProt Q6WWW4); test: as above
BD-UBP12 (A. thaliana) [1] = target: T2, BD-UBP12 (A. thaliana); test: two-hybrid; GAL4-based two-hybrid system 3 (Clontech); baits in pGBKT7-BD, preys in pGADT7-AD; growth on SD/-LTH or SD/-ALTH
[2] = target: full-length UPL3 bait (A. thaliana) (UniProt Q6WWW4); test: as above
BD-UBP12 (A. thaliana) [3] = target: T2, BD-UBP12 (A. thaliana); test: as above; remark: listed apart in the source
[4] = target: full-length UPL3 bait (A. thaliana) (UniProt Q6WWW4); test: as above; remark: listed apart in the source

Molecule	binding (UBP12-GFP (A. thaliana))	binding (UPL3-GFP (A. thaliana))	binding (BD-UBP12 (A. thaliana) [1])	binding [2]	further results
hexokinase 1 (HXK1) (from UniProt Q42525 1-496) (enzyme)	no binding	binds			
HXK1 (two-hybrid prey) (from UniProt Q42525 1-496) (enzyme)			no binding	binds weakly	
BRM (two-hybrid prey) (from UniProt Q6EVK6 1-2193)			binds weakly	binds weakly	
B1					binding (BD-UBP12 (A. thaliana) [3]): binds weakly; binding [4]: binds weakly
B2	binds	binds			

Reference: PMC9354775
